The values that follow are results of earlier work, collected in patent US20200261427A1 (Al Therapeutics, Inc., priority 2019, published 2020).

For the data set the following is noted: cited from earlier work.

With `CO[C@H]1C[C@@H]2CC[C@@H](C)[C@@](O)(O2)C(=O)C(=O)N2CCCC[C@H]2C(=O)O[C@H]([C@H](C)C[C@@H]2CC[C@@H](O)[C@H](OC)C2)CC(=O)[C@H](C)/C=C(\C)[C@@H](O)[C@@H](OC)C(=O)[C@H](C)C[C@H](C)/C=C/C=C/C=C/1C` [Rapamycin, rapamycin], the “solubility in benzyl alcohol, chloroform, acetone, and acetonitrile” value was “freely soluble”.
